Some of the results follow.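 How the source made its calls: active = dose-dependent thermal stabilisation significant by F-test of dose-response against flat model at 10% FDR; inactive = not significant.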

Sequences of proteins named here, by UniProt entry; tags and fusion partners are left off. A change or cut given only in a name is not applied to a line headed by its entry.
UniProt O95793: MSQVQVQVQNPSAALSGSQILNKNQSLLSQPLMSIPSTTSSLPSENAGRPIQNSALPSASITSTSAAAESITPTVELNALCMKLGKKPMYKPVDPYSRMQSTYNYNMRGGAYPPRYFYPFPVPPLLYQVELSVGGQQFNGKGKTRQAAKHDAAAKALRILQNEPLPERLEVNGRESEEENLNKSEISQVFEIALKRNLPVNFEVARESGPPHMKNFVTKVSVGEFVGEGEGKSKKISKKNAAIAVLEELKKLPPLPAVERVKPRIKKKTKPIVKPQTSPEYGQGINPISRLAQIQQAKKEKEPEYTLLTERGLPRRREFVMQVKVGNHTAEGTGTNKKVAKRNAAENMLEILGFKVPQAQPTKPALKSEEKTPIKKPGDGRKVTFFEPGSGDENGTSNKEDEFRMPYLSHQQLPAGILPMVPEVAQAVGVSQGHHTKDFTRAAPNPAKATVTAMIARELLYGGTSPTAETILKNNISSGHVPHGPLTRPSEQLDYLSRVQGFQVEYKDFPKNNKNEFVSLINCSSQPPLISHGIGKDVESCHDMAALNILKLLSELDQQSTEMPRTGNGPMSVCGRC
UniProt Q15022: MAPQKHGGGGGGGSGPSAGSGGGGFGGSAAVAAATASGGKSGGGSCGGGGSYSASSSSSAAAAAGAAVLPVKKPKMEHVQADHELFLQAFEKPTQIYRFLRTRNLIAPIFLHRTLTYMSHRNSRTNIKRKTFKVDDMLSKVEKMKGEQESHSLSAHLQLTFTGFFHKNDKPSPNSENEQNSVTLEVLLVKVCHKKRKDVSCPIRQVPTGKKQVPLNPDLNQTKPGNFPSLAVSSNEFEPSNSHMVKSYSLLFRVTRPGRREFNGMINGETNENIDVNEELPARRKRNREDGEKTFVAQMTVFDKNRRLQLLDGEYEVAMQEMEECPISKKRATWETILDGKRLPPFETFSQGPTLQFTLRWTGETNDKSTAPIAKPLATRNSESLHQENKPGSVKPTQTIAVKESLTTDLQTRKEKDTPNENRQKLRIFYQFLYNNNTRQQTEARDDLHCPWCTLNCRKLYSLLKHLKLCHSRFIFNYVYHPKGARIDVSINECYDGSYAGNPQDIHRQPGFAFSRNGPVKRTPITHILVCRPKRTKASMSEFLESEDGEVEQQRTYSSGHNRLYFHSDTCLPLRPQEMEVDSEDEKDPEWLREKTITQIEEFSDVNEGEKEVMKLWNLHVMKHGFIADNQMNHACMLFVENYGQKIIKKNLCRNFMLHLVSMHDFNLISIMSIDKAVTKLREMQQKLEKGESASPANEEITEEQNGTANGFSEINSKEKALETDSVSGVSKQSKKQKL
UniProt P42224: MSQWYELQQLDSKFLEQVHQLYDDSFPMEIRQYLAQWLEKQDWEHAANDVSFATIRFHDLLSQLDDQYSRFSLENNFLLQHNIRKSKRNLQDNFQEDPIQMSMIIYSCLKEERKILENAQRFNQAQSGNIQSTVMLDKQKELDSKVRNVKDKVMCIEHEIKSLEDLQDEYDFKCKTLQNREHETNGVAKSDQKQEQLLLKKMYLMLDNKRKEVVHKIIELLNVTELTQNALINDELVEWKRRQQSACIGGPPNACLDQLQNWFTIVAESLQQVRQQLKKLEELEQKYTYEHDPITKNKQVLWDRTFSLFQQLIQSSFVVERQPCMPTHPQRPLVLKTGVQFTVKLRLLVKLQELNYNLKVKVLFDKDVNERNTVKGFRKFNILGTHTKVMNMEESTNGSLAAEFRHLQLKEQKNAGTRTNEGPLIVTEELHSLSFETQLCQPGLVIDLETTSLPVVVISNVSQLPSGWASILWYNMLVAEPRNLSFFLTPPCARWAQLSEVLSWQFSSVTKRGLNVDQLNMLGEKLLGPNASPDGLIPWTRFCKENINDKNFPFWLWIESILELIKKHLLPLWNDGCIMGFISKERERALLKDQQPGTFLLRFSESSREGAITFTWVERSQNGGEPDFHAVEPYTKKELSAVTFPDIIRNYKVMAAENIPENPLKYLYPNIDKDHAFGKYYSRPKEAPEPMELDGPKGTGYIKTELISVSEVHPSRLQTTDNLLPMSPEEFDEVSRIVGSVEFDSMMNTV
UniProt Q15545, whole entry: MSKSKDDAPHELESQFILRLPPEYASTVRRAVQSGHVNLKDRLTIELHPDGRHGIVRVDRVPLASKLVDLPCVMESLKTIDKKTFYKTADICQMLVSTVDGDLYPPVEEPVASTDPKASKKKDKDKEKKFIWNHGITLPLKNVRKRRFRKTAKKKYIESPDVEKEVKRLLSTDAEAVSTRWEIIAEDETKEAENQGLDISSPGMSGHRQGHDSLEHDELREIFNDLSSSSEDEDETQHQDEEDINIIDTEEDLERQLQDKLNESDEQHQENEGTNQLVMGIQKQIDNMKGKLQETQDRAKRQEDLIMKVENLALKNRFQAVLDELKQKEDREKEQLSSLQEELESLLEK
UniProt Q12824, whole entry: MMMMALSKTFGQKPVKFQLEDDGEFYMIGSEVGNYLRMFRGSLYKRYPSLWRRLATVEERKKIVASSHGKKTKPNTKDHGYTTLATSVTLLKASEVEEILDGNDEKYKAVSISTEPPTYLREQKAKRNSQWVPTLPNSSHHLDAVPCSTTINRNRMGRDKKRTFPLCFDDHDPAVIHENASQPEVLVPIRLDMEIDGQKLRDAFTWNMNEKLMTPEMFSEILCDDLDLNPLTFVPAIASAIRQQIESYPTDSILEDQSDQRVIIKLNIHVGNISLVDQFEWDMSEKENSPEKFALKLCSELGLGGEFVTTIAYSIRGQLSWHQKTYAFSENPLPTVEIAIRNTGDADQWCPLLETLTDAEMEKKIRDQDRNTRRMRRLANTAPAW
UniProt Q8NB90: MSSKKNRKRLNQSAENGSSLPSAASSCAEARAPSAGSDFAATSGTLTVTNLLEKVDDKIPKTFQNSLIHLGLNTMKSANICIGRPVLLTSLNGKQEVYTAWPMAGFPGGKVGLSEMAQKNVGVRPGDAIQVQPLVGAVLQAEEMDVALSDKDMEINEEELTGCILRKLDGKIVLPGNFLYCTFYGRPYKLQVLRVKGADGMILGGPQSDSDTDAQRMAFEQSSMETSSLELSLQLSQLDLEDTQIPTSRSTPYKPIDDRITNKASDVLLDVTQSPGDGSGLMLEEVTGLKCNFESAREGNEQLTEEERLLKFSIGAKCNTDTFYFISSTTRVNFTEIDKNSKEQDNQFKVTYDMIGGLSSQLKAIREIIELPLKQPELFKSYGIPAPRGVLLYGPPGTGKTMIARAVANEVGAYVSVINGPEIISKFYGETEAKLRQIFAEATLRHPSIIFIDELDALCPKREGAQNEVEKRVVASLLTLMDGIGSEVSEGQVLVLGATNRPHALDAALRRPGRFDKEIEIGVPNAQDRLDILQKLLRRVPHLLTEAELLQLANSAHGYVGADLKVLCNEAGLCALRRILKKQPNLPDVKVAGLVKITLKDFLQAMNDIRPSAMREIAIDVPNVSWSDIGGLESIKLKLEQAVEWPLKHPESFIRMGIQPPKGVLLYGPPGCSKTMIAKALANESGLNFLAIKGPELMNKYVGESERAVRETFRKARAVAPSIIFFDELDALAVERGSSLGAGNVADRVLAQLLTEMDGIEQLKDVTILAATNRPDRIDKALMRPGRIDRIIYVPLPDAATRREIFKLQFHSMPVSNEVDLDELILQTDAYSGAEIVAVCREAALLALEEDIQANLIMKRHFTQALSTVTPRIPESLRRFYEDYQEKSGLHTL
UniProt Q8WVK2: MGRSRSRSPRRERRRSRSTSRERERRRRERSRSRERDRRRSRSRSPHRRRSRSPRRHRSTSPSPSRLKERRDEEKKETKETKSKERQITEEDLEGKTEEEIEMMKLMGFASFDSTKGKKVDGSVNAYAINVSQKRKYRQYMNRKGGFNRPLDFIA
UniProt Q8IYB8: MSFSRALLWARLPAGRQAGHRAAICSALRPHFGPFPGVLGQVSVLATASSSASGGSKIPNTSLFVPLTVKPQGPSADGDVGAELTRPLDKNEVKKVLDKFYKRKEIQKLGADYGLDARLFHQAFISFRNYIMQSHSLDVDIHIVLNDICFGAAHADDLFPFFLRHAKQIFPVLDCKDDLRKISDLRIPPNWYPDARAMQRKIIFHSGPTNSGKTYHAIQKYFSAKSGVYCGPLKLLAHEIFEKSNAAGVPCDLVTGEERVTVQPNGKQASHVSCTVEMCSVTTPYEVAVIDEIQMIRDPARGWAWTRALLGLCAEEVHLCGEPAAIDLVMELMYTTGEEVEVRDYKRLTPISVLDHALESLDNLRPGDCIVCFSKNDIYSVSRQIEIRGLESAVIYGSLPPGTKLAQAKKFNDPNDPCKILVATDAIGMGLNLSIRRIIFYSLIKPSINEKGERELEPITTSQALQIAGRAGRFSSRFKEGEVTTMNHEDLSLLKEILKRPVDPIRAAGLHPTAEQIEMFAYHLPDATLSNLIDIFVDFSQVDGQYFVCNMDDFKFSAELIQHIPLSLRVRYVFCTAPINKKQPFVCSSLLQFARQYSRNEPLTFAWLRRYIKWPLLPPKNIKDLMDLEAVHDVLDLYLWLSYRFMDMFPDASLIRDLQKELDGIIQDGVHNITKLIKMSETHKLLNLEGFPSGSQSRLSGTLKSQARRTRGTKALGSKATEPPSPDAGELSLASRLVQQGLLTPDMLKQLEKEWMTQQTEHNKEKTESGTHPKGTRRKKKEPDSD
UniProt O00268, whole entry: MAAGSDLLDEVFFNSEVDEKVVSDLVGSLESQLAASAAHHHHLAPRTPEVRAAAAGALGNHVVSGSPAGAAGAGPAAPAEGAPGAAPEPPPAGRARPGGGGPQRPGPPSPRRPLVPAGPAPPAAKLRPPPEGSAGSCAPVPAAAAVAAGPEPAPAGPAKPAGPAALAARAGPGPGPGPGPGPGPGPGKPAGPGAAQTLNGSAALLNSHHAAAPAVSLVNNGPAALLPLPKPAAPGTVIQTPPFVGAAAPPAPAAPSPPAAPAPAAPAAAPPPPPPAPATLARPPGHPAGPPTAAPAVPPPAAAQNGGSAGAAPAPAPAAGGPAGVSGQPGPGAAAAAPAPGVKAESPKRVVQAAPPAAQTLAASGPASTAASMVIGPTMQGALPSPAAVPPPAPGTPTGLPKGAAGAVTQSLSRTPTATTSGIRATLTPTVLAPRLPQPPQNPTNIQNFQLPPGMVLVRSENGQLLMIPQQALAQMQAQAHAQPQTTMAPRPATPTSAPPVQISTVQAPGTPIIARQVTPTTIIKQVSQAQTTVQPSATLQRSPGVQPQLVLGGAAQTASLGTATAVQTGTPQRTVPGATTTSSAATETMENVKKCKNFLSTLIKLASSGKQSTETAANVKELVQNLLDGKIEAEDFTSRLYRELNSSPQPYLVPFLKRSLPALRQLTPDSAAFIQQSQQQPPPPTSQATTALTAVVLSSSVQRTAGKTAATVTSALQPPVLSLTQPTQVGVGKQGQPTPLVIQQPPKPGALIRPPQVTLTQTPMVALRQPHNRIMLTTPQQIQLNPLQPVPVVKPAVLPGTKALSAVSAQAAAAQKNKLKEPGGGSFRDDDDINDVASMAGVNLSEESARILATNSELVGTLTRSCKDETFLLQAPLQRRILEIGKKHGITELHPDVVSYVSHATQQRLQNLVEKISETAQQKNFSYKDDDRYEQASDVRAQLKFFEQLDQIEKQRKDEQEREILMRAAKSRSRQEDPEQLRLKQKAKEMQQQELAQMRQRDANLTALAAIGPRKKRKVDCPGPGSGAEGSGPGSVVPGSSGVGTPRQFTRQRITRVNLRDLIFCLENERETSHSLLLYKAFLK
UniProt P50502: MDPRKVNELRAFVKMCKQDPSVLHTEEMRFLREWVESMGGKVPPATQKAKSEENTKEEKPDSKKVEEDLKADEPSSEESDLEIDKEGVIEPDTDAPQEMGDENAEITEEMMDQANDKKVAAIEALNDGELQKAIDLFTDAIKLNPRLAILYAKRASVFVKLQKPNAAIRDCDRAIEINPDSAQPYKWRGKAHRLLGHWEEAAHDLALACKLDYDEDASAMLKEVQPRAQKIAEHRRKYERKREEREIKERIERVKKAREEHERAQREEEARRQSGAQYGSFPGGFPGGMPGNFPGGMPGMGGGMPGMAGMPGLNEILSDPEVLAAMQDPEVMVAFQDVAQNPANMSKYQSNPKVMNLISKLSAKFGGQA
UniProt Q9UHJ6: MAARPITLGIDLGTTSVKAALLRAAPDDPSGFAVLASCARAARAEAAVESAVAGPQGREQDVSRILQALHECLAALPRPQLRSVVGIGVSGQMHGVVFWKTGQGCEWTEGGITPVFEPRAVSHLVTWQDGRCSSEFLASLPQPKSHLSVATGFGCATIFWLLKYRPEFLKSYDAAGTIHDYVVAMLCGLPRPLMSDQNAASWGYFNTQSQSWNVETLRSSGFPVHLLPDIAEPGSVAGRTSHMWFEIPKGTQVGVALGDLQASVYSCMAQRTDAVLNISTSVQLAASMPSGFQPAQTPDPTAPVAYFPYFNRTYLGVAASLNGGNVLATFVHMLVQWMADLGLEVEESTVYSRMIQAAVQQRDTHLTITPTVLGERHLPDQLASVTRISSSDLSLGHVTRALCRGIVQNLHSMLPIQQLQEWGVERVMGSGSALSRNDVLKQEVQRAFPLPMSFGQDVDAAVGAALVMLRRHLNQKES

Compound in this assay: Nc1nc2c(ncn2[C@@H]2O[C@H](COP(=O)(O)OP(=O)(O)OP(=O)(O)O)[C@@H](O)[C@H]2O)c(=O)[nH]1
Kind of assay: dose-dependent thermal stabilisation call (2D-TPP, DLPTP, 10% FDR) (binary (1 = stabilised)); higher = stabilised by the compound. The conditions noted are these: system: Jurkat gel-filtered lysate; concentration range 1-500 µM.
SIRT2 (UniProt Q8IXJ6): the “dose-dependent thermal stabilisation call” value is inactive: 0.

For STAG1 (UniProt Q8WVM7), the “dose-dependent thermal stabilisation call” value is inactive: 0.

On to SMCR8 (UniProt Q8TEV9), for which the “dose-dependent thermal stabilisation call” value is inactive: 0.

On to STAU1 (UniProt O95793), for which the “dose-dependent thermal stabilisation call” value is inactive: 0.

For the target SUZ12 (UniProt Q15022), the “dose-dependent thermal stabilisation call” value was active: 1.

Consider STAM (UniProt Q92783), for which the “dose-dependent thermal stabilisation call” value was inactive: 0.

For SPG20 (UniProt Q8N0X7), the “dose-dependent thermal stabilisation call” value is inactive: 0.

For SRCAP (UniProt Q6ZRS2), the “dose-dependent thermal stabilisation call” value is inactive: 0.

With STAT1 (UniProt P42224), the “dose-dependent thermal stabilisation call” value is inactive: 0.

As for SUMF2 (UniProt Q8NBJ7), the “dose-dependent thermal stabilisation call” value is inactive: 0.

In the case of TAF7 (UniProt Q15545), the “dose-dependent thermal stabilisation call” value is inactive: 0.

For SMARCB1 (UniProt Q12824), the “dose-dependent thermal stabilisation call” value was inactive: 0.

Turning to SRGAP2 (UniProt O75044), the “dose-dependent thermal stabilisation call” value was inactive: 0.

As for SPAG1 (UniProt Q07617), the “dose-dependent thermal stabilisation call” value is inactive: 0.

In the case of SPATA5 (UniProt Q8NB90), the “dose-dependent thermal stabilisation call” value was active: 1.

With SMYD5 (UniProt Q6GMV2), the “dose-dependent thermal stabilisation call” value is inactive: 0.

For the target SNX6 (UniProt Q9UNH7), the “dose-dependent thermal stabilisation call” value was inactive: 0.

For SNRNP27 (UniProt Q8WVK2), the “dose-dependent thermal stabilisation call” value is inactive: 0.

SMARCC1 (UniProt Q92922): the “dose-dependent thermal stabilisation call” value is inactive: 0.

On to STRN4 (UniProt Q9NRL3), for which the “dose-dependent thermal stabilisation call” value is inactive: 0.

Turning to SUPV3L1 (UniProt Q8IYB8), the “dose-dependent thermal stabilisation call” value is inactive: 0.

As for SPRYD4 (UniProt Q8WW59), the “dose-dependent thermal stabilisation call” value was inactive: 0.

As for SNX9 (UniProt Q9Y5X1), the “dose-dependent thermal stabilisation call” value was inactive: 0.

As for SIPA1 (UniProt Q96FS4), the “dose-dependent thermal stabilisation call” value was inactive: 0.

On to SUPT7L (UniProt O94864), for which the “dose-dependent thermal stabilisation call” value was inactive: 0.

Turning to TAF4 (UniProt O00268), the “dose-dependent thermal stabilisation call” value was inactive: 0.

As for SRSF5 (UniProt Q13243), the “dose-dependent thermal stabilisation call” value was active: 1.

Turning to SPDL1 (UniProt Q96EA4), the “dose-dependent thermal stabilisation call” value was inactive: 0.

For STIM1 (UniProt Q13586), the “dose-dependent thermal stabilisation call” value was inactive: 0.

Regarding SIAE (UniProt Q9HAT2), the “dose-dependent thermal stabilisation call” value is inactive: 0.

As to ST13 (UniProt P50502), the “dose-dependent thermal stabilisation call” value is inactive: 0.

On to TAF15 (UniProt Q92804), for which the “dose-dependent thermal stabilisation call” value is inactive: 0.

Consider SMAD2 (UniProt Q15796), for which the “dose-dependent thermal stabilisation call” value is inactive: 0.

As for SHPK (UniProt Q9UHJ6), the “dose-dependent thermal stabilisation call” value was active: 1.

Take SLC4A7 (UniProt Q9Y6M7): the “dose-dependent thermal stabilisation call” value is inactive: 0.
